# Where “and” joins values, the source holds several entries; their conditions need not be identical. Equal values may be shown once. The inconclusive results got no clear call from the source; some entries with a clear call stand among them for comparison. For some assays here: Potencies of inconclusive entries are doubtful fits and often do not repeat. Calls of active or inactive are those of the source. Unless noted, calls follow the shape of the dose curve; as a rule, active = well fitted curve in the direction sought with a large enough effect; inconclusive = small, poorly fitted or top-dose-only effect, or another doubt; inactive = no such curve, though single readings can be large; an effect the other way counts as inactive or inconclusive.
# Protein sequences, listed by entry. Tags and fused reporters are not part of them. Lines headed by an entry give the natural chain unless they say otherwise; changes in a name come on top.
# UniProt Q99828: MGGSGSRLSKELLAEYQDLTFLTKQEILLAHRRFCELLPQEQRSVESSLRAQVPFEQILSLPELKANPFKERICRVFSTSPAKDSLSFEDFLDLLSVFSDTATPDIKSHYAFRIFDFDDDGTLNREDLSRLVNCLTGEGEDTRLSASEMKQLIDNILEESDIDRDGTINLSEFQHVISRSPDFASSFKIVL
# UniProt P78324, whole entry, looked up: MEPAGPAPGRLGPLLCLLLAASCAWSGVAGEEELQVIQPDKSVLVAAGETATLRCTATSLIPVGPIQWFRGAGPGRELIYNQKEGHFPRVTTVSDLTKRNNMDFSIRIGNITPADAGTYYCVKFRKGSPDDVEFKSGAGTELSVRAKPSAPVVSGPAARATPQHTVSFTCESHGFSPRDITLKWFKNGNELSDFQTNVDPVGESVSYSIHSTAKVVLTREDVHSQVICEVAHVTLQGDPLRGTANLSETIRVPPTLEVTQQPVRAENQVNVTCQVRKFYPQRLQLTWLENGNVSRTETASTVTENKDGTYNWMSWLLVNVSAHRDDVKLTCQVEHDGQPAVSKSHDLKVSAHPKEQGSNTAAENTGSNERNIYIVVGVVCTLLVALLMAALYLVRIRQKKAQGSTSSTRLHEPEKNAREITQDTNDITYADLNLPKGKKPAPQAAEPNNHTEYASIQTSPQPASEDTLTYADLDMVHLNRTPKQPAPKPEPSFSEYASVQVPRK
# UniProt Q08722, whole entry, looked up: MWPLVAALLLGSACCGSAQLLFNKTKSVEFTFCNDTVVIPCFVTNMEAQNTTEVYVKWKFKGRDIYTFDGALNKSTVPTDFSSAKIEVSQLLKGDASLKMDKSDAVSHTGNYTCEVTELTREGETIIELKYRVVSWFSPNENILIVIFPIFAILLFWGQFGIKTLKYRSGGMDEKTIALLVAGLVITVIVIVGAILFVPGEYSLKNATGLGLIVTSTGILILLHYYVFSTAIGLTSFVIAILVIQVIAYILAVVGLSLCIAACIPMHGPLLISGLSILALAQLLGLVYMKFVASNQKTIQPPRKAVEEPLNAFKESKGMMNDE
# UniProt P08684, whole entry, looked up: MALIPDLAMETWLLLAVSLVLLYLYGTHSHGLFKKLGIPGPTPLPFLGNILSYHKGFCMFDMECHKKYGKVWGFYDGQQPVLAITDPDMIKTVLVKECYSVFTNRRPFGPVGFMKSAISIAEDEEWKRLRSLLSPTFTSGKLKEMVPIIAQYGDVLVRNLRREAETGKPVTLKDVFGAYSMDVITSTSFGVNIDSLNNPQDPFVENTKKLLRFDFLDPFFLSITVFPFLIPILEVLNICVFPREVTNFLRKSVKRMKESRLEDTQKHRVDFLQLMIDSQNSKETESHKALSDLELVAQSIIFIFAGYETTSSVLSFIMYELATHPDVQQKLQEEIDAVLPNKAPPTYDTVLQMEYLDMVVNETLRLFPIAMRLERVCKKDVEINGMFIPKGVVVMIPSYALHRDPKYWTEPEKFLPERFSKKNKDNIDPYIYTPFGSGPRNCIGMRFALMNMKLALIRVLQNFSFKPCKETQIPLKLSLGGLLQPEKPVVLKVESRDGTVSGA
# UniProt P33261, whole entry, looked up: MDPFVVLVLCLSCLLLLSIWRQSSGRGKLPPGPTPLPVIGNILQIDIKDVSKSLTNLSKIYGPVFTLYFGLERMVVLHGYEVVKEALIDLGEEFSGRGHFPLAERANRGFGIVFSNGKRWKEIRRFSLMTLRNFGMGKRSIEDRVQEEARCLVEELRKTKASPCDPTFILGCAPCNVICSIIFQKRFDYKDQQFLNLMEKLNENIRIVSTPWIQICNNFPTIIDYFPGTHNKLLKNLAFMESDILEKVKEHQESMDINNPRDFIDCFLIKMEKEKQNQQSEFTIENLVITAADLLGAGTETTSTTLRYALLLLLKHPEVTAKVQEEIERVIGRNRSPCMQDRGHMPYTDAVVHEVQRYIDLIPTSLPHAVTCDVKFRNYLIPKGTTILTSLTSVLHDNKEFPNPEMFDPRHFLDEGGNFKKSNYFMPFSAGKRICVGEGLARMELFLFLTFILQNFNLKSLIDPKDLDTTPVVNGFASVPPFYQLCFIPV
# UniProt P03372, whole entry, looked up: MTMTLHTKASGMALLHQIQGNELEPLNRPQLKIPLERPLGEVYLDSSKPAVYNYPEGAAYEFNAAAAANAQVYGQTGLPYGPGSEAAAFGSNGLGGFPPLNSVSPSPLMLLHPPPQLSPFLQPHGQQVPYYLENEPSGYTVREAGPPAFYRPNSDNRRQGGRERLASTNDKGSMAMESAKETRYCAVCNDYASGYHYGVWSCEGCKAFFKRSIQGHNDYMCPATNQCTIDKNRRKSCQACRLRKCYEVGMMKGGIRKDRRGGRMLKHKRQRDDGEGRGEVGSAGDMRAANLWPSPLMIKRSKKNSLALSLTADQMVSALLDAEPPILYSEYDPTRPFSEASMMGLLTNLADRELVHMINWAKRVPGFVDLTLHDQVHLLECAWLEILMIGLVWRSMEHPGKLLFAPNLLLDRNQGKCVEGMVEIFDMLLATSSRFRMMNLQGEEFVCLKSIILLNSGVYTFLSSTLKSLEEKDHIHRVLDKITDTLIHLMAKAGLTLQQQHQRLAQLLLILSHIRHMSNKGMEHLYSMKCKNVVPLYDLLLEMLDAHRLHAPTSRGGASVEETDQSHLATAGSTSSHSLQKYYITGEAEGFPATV
# Assays:
# [1] = DH5-alpha competent E. coli microbial cell viability qHTS against the NCATS CANVASS Library (AID 1347377); details: BacTiter-Glo ATP luminescence, overnight
# Procedure, shortened: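 Overnight incubation at 37C, 5% CO2 of E. coli DH5-alpha (diluted to 0.2 OD) with compounds precedes BacTiter-Glo addition. Luminescence, acquired after 20 min at room temperature, reflects viable-cell ATP.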
# [2] = qHTS for H2AX Agonists against the NCATS CANVASS Library (AID 1347378); details: CHO-K1 H2AX phosphorylation, HTRF TR-FRET, 3 h; also: potency is read from the fitted curve at half-maximal effect
# Procedure, shortened: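 CHO-K1 cells were plated overnight at 37C, then exposed to compounds (concentration series, 0.76% DMSO final) for 3 hr at 37C. Lysates received Eu-cryptate anti-pH2AX (S139) and d2 anti-H2AX antibodies; after 24 hr at room temperature, TR-FRET 665/620 nm ratio was read.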
# [3] = qHTS for Inflammasome Signaling Inhibitors: IL-1-beta AlphaLISA screen against the NCATS CANVASS Library (AID 1347379); details: THP-1 LPS/ATP, IL-1B AlphaLISA secretion, 16 h;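 also: human THP-1 cells primed with LPS then triggered with ATP; secreted IL-1B measured as AlphaLISA emission at 615 nm; potency is read from the fitted curve at half-maximal effect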
# Procedure, shortened: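 THP-1, 1 hr compound pre-incubation, then LPS 250 ng/mL + ATP 1.25 mM (final); 16 hr total with compound; IL-1B AlphaLISA, ex 680/em 615 nm; 11-point qHTS, up to 57.5 uM final.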
# [4] = Cytotoxicity qHTS for assessment of Hepg2 cells membrane integrity screened against the NCATS CANVASS Library (AID 1347387); details: HepG2 LDH release (CytoTox-ONE) fluorescence, 5 h; also: potency is read from the fitted curve at half-maximal effect
# Procedure, shortened: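 Membrane damage in HepG2 monolayers was estimated from released LDH, measured with CytoTox-ONE (ex 560/em 590 nm), after 5 hr treatment across 0.59 nM - 46 uM final.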
# [5] = qHTS for Activators of p53 Stress Response Pathway screened against the NCATS CANVASS Library (AID 1347388); details: p53RE-bla HCT-116, beta-lactamase reporter, 16 h; also: potency is read from the fitted curve at half-maximal effect
# Procedure, shortened: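 Beta-lactamase reporter driven by p53 response elements in HCT-116 cells, read as the 460 nm/530 nm emission ratio after CCF4 loading, following 16 h of exposure to an 11-point series. Cell viability was measured in the same wells by CellTiter-Glo luminescence.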
# [6] = Secretion counterscreen for inhibitors of the SERCaMP assay screened against the NCATS CANVASS Library (AID 1347390); details: SH-SY5Y constitutive GLuc secretion, luminescence, 20 h; series mostly up to 76.6 µM
# Procedure, shortened: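 SH-SY5Y cells expressing constitutively secreted GLuc, 1000 cells/well, attached 4 h at 37C, then exposed to compounds (0.001 - 77 uM, 11-pnt series) for 20 h. Coelenterazine added; luminescence read to flag secretory-pathway interferers.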
# [7] = qHTS for activators of Nrf2/ARE signaling pathway screened against the NCATS CANVASS Library (AID 1347391); details: ARE-bla HepG2, beta-lactamase reporter, 16 h; series mostly up to 46.1 µM; also: 0% is about no effect; nearly all actives have a fitted effect of over 60% in size
# Procedure, shortened: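 Activation of Nrf2/ARE was scored in ARE-bla HepG2 cells after 16 h compound exposure using CCF4 beta-lactamase fluorescence ratio readings.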
# [8] = qHTS for activators of dead-cell proteases activity screened against the NCATS CANVASS Library (AID 1347392); details: HepG2 cytotoxicity, dead-cell protease luminescence, 5 h;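 also: luminescence from protease leaking out of membrane-damaged cells cleaving impermeant substrate; potency is read from the fitted curve at half-maximal effect; rising signal means more cytotoxicity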
# Procedure, shortened: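 Luminescent dead-cell protease readout (AAF-aminoluciferin, 15 min, room temperature) after 5 h compound treatment of HepG2 cells (2000/well, pre-attached 18 h). Eleven concentrations.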
# [9] = qHTS for inhibitors of ER calcium dysfunction: SERCaMP assay screened against the NCATS CANVASS Library (AID 1347393); details: SH-SY5Y GLuc-SERCaMP (Gaussia luciferase released on ER calcium loss) secretion, thapsigargin, luminescence; also: potency is read from the fitted curve at half-maximal effect; nearly all actives have a fitted effect of over 40% in size
# Procedure, shortened: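 Thapsigargin-induced ER calcium depletion drives GLuc-SERCaMP secretion from SH-SY5Y cells; compounds given 16 h beforehand were scored by lowered coelenterazine luminescence after 4 h challenge.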
# [10] = qHTS for inhibitors of Wild type Zika virus screened against the NCATS CANVASS Library (AID 1347396); details: Vero cells, Zika virus CPE, CellTiter-Glo, 72 h; series mostly up to 45.9 µM; also: potency is read from the fitted curve at half-maximal effect
# Procedure, shortened: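 Protection against wild-type Zika cytopathic effect is measured in African green monkey Vero 766 cells exposed to an 11-point compound series. Surviving cells are quantified by CellTiter Glo luminescence after 72 h.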
# [11] = Viability qHTS for inhibitors of the SERCaMP assay screened against the NCATS CANVASS Library (AID 1347400); details: SH-SY5Y SERCaMP cells viability, CellTiter-Glo, 48 h; series mostly up to 92.2 µM; also: potency is read from the fitted curve at half-maximal effect; nearly all actives have a fitted effect of over 70% in size
# Procedure, shortened: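 Measures loss of viability in SERCaMP reporter SH-SY5Y cells treated for 48 h with compounds; luminescent ATP detection by CellTiter-Glo.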
# [12] = molecular target: Calcium and integrin-binding protein 1 (Homo sapiens) (UniProt Q99828); test: Confirmatory qHTS for Identification of Calcium Integrin Binding Protein 1 (CIB1) Competitor (AID 1508617); details: CIB1 binding competition assay, biochemical qHTS; series mostly up to 114 µM; also: potency is read from the fitted curve at half-maximal effect; nearly all actives have a fitted effect of over 65% in size
# Procedure, shortened: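 Confirmatory qHTS measures displacement of a FITC-alphaIIb peptide (100 nM) from CIB1-GST (1 uM) by fluorescence polarization. Calcium-containing HEPES buffer, pH 7.4; two 15 min room-temperature incubations.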
# [13] = NCATS anti-infectives library activity on HEK293 viability as a counter-qHTS vs the C. elegans viability qHTS (AID 1745854); details: HEK293 viability counter-screen; series mostly up to 41.8 µM;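 also: potency is read from the fitted curve at half-maximal effect; HEK293 cells exposed to compounds for 24 hr before the viability read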
# Procedure, shortened: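 Compound titrations (final up to 41.7 uM) were incubated with HEK293 cells for 24 hr at 37C under 5% CO2. Viable cells were quantified with CellTiter-Glo after 10 min at ambient temperature.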
# [14] = molecular target: Tyrosine-protein phosphatase non-receptor type substrate 1 (Homo sapiens) + Leukocyte surface antigen CD47 (Homo sapiens) (UniProt P78324+Q08722); test: CD47-SIRPalpha protein protein interaction - LANCE assay qHTS validation (AID 1347057; active = well fitted curve in the direction sought with a large enough effect in the signal ratio, with a control signal flat, not every such curve was filed as active; inconclusive = small, poorly fitted or top-dose-only effect, or effect the other way, or a change in a side signal; inactive = no such curve, though single readings can be large or run the other way; the % refers to the signal ratio; also: 0% is about no effect); details: Recombinant CD47-His / biotin-SIRPalpha, TR-FRET ratio; series mostly up to 38.3 µM
# Procedure, shortened: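 Inhibition of soluble CD47/SIRPalpha ectodomain association by titrated compounds, measured as 665/615 nm time-resolved FRET ratio after sequential 30 min room-temperature incubations.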
# [15] = molecular target: Cytochrome P450 3A4 (Homo sapiens) (UniProt P08684); test: qHTS Assay for Inhibitors and Substrates of Cytochrome P450 3A4 (AID 884); details: recombinant CYP3A4, Luciferin-PPXE luminescence; series mostly up to 57.1 µM; also: % is scaled to controls: 0 for no effect and ±100 for the full control effect; nearly all actives have a fitted effect of over 50% in size
# Procedure, shortened: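 Luminescent readout of luciferin produced by CYP3A4 (20 nM) dealkylation of Luciferin-PPXE, 25 uM (its KM). NADPH-driven reaction ran 60 min at RT after 10 min compound preincubation; data scaled to 57 uM ketoconazole as 100% inhibition.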
# [16] = molecular target: Cytochrome P450 2C19 (Homo sapiens) (UniProt P33261); test: qHTS Assay for Inhibitors and Substrates of Cytochrome P450 2C19 (AID 899); details: recombinant CYP2C19, luciferin-H EGE luminescence; activity, negative = inhibition: at 57.1 µM (top of the series); also: potency is read from the fitted curve at half-maximal effect; nearly all actives have a fitted effect of over 60% in size
# Procedure, shortened: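 Reactions contain 5nM enzyme, 10uM Luciferin-H EGE (KM) and 50mM KPO4; compound preincubates 10 min at 37C, NADPH regeneration starts turnover for 60 min. Luminescence after detection reagent gives activity.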
# [17] = Cell Viability - LYMP2-005 (AID 967); details: LYMP2-005 lymphoblastoid cell viability; series mostly up to 92.2 µM;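 also: plate controls were DMSO only for no effect and 92 µM tetraoctylammonium bromide control for full effect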
# Procedure, shortened: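 CellTiter-Glo luminescence (cellular ATP) read-out; LYMP2-005 lymphoblastoid cells, 2500/well, 5 h pre-incubation, then 24 h compound exposure at 37 C in complete medium. Tetraoctylammonium bromide positive control; AC50 by standard Hill fit.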
# [18] = qHTS Assay for Identification of Small Molecule Inducers of Hypoxia Response (AID 2120; active = well fitted curve in the direction sought with a large enough effect in the signal ratio, with a control signal flat, not every such curve was filed as active; inconclusive = small, poorly fitted or top-dose-only effect, or a change in a side signal; inactive = no such curve, though single readings can be large or run the other way; the % refers to the signal ratio; also: 0% is about no effect); details: hypoxia response reporter cells, beta-lactamase ratio readout; at 104 µM (top of the series)
# Procedure, shortened: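 HRE-bla ME-180, 2500 cells/well, 0.5% dialyzed FBS medium; cpd titration, 17 h 37 degrees C; CCF4 2.5 h RT; Ex 405, Em 460/530 ratio -> %Activity, AC50.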
# [19] = molecular target: Estrogen receptor (Homo sapiens) (UniProt P03372); test: qHTS assay for small molecule agonists of estrogen receptor alpha signaling (AID 588514; calls by dose curve; also: potency is read from the fitted curve at half-maximal effect; nearly all actives have a fitted effect of over 70% in size); details: ER-alpha-UAS-bla HEK293, beta-lactamase ratio, 18 h; activation: at 76.8 µM (top of the series), percent of full estradiol response, vehicle zero
# Procedure, shortened: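 Fluorescence from CCF4 cleavage reports ER-alpha-driven beta-lactamase expression in HEK 293 cells treated 18 hrs at 37 C. Data normalized to 17-beta-estradiol (20 nM) and DMSO, fitted to Hill equation.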
# [20] = qHTS assay to identify small molecules that stimulate interleukin-8 (IL-8) secretion (AID 651758; active = well fitted activation curve with a large enough effect in the signal ratio; inconclusive = small, poorly fitted or top-dose-only effect, or effect the other way, or a change in a side signal; the % refers to the signal ratio; also: 0% is about no effect); details: HTRF ratio (665/615); activation: at 92.2 µM (top of the series)
# Procedure, shortened: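 Secreted IL-8 measured homogeneously by TR-FRET (two labelled anti-IL-8 antibodies, 1-3 h at room temperature) after a 16 h, 37 C compound treatment of THP-1 cells at 2000 cells/well.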
# Tags tell the direction and shape of the fitted curve.
compound,measurement,setting,value
CC(C)CC(=O)c1c(O)cc2c(c1O)C(CC(C)C)C1=C(O2)C(C)(C)C(=O)C(C)(C)C1=O (stereo not given),Potency,[1],"inconclusive: 20.9 µM [rising, partial curve]"
same,Potency,[2],"inconclusive: 54.5 µM [activator, single point]"
same,Potency,[3],"inconclusive: 43.2 µM [inhibitor, single point]"
same,Potency,[4],"inconclusive: 33.1 µM [rising, single point]"
same,Potency,[5],active: 20.9 µM
same,Potency,[6],"inconclusive: 38.4 µM [inhibitor, partial curve, poor fit]"
same,Potency,[7],inactive
same,Potency,[8],"inconclusive: 33.1 µM [activator, single point]"
same,Potency,[9],"inconclusive: 38.4 µM [inhibitor, partial curve]"
same,Potency,[10],"inconclusive: 9.27 µM [inhibitor, full curve]"
same,Potency,[11],"inconclusive: 5.38 µM [cytotoxic, single point]"
O=c1[nH]sc2cc(Cl)ccc12,Potency,[12],"inconclusive: 2.82 µM [inhibitor, full curve]"
COc1cc2c(NC3CCN(C(C)C)CC3)nc(C3CCCCC3)nc2cc1OCCCN1CCCC1,Potency,[13],"inconclusive: 15.8 µM [cytotoxic, single point]"
CCCCc1ncc(/C=C(\Cc2cccs2)C(=O)O)n1Cc1ccc(C(=O)O)cc1,Potency,[14],inactive
COc1ccc(C(=O)c2ccccc2)c(O)c1,Potency,[15],inactive
same,Potency,[16],"inconclusive: 0.398 µM [inhibitor, full curve, poor fit]"
same,Potency,[17],inactive
same,activation,[18],inactive: 1.33%
same,Potency,[19],"inconclusive: 35.5 µM [activator, partial curve] and inconclusive: 31.6 µM [activator, partial curve]"
same,activation,[20],inconclusive: -13.2%

# Quoted at random: 2 records from the list, in no set order.
compound,measurement,setting,value
CC(C)CC(=O)c1c(O)cc2c(c1O)C(CC(C)C)C1=C(O2)C(C)(C)C(=O)C(C)(C)C1=O (stereo not given),Potency,[5],active: 20.9 µM
COc1ccc(C(=O)c2ccccc2)c(O)c1,activation,[18],inactive: 1.33%

# From PubChem BioAssay (NCATS)
